Reference: PubChem BioAssay AID504808 (Drosophila RNAi Screening Center, 2011)
Purpose: 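Fly genes required to hold E2F transcription in check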 (primary screen). System: Drosophila S2 cells. Reagents: long dsRNA against Drosophila genes. Read-out: 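Firefly luciferase driven by E2F sites, normalised to Renilla luciferase on the same minimal promoter, measured by plate reader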. Scale: E2F firefly: higher = more E2F reporter activity; Renilla normaliser: higher = more normaliser reporter signal. Call rule: 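a knock-down counted as active when the firefly/Renilla E2F signal rose above 50%, a threshold chosen arbitrarily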.
The deposit covers about 21,000 reagents; this is an unselected part of those that have a named target and a result. In the full data, 18 (0.084%) were called active. 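Raw counts without plate normalisation, one of two replicates; the ratio scores behind the calls were not deposited.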 A number with no mark means an inactive call. Names joined by + are all predicted targets of the reagent. Not stated in the record: the amount of reagent, the time to read-out.

Target gene,DRSC id,"E2F firefly, rep 1","Renilla normaliser, rep 1"
Hs3st-A,DRSC06507,55504,3299
Hs3st-A,DRSC06508,1.63e5,6051
Hs3st-A,DRSC06509,1.55e5,5158
AGO1,DRSC05912,1923,186
Cpr50Cb,DRSC06975,1.01e5,4255
CG5346,DRSC15778,1.00e5,5188
Tm1,DRSC13082,82625,2643
Tm1,DRSC13083,84413,4729
Tm1,DRSC16886,65980,3730
Ets65A,DRSC09968,92941,3466
Ets65A,DRSC10738,90319,3804
Ets65A,DRSC11164,71988,3582
MAPk-Ak2,DRSC18678,85423,4937
Pka-C3,DRSC09402,1.35e5,4192
Pka-C3,DRSC11254,1.24e5,6355
CHKov1,DRSC01566,1.37e5,5732
CHKov1,DRSC01696,1.27e5,5669
CHKov1,DRSC14258,1.14e5,5591
CHKov1,DRSC20937,79133,2735
HemK2 + Snapin,DRSC00736,1.08e5,4184
HemK2 + Snapin,DRSC00737,1.57e5,5289
chrb,DRSC11335,77291,3787
Trf4-1,DRSC17775,1.14e5,5299
CG3744,DRSC15511,1.12e5,5696
Acsx1R,DRSC14339,1.32e5,6600
Mcm7,DRSC11219,1.13e5 (active),171
Toll-9,DRSC11776,1.25e5,6717
Osi10b,DRSC12279,1.33e5,5173
CG2852,DRSC04321,97705,4566
PLCXD,DRSC02427,1.00e5,4313
CG5880,DRSC15906,1596,1140
blow,DRSC07586,3145,185
Isha,DRSC04456,69424,3088
pic,DRSC16639,72968,4269
meng,DRSC02134,1.70e5,6077
sti,DRSC09739,1.08e5,6490
sti,DRSC09740,1.17e5,7704
TwdlN,DRSC15813,1.09e5,6789
CG30428,DRSC04041,1.44e5,5219
Pcyt2,DRSC08531,77572,3608
Osi20,DRSC12568,1.33e5,5261
CG34286,DRSC13372,88056,2714
CG18641,DRSC00527,1.54e5,5904
Ndae1,DRSC00975,1.30e5,6174
Ndae1,DRSC02770,83918,3697
CG10516,DRSC09738,1.66e5,7780
CG7692,DRSC10902,2.40e5,8820
Syngr,DRSC06003,93128,3755
pigeon,DRSC03565,76321,3227
PPYR1,DRSC19612,2.04e5,6841
Nmda1,DRSC07479,2942,188
Phf7,DRSC20692,1.56e5,5262
CG16903,DRSC18561,1.28e5,6971
Pka-C1,DRSC03399,80319,3996
Cdk1,DRSC03504,45279,210
Rac2,DRSC11262,1.03e5,4281
Dhx15,DRSC06036,90806,3306
AspRS-m,DRSC02646,1.06e5,4265
CG3108,DRSC18280,8235,752
Ugt302C1,DRSC15353,70074,3454
CG30471,DRSC07096,81804,3204
CG15140,DRSC02440,1.04e5,4447
GstD10,DRSC15346,1.48e5,6833
pns,DRSC08598,1.11e5,4320
Trf2,DRSC18727,1.27e5,7392
fs(1)M3,DRSC18381,7883,744
ACXA,DRSC00844,1.01e5,4224
fzo,DRSC16954,1.04e5,6390
Zfrp8,DRSC04352,1.09e5,4764
CG34050 (retired record),DRSC09067,82828,3437
CG4984 + CG4975,DRSC06907,1.55e5,5280
CG4984 + CG4975,DRSC06908,73784,3665
Gem3,DRSC11144,1.08e5,4842
CG12780,DRSC06169,1.37e5,4444
CG12935,DRSC06248,3309,36
RunxB,DRSC20395,80073,2587
RunxB,DRSC20525,1.25e5,4572
RunxB,DRSC20526,95023,5246
Cenp-C,DRSC14371,1.31e5,8253
CG17732,DRSC10283,1.38e5,6800
CG14722,DRSC14944,68329,3171
z,DRSC18855,1364,840
stil,DRSC07699,2931,199
CG2217 + CG42740,DRSC14141,1754,972
tbc,DRSC20540,1.04e5,5546
CG8677 + CG31626,DRSC01838,92205,3517
Uba5,DRSC19775,1.55e5,6896
Rrp42,DRSC07161,1.43e5,5956
CG17786,DRSC15270,1.23e5,6286
Mcm2,DRSC16734,1.23e5,4624
Apc,DRSC14114,1.01e5,4650
Tmtc4,DRSC15702,1.07e5,6882
CG13707,DRSC08316,1.00e5,3525
ItgaPS4,DRSC06630,1.15e5,4127
CG15136,DRSC02436,1.02e5,3707
CG14105,DRSC10107,1.21e5,6726
Men,DRSC12924,75141,2522
Men,DRSC16738,1.31e5,6089
CG13455,DRSC10002,1.65e5,6375
Syt7,DRSC17130,1.33e5,6629
Syt7,DRSC17159,60280,3483
Ctu2,DRSC02024,72087,5081
CG17974,DRSC04299,99914,4091
Slimp,DRSC13656,74589,2642
mad2,DRSC10274,70307,3997
nebu,DRSC09807,69059,3524
nebu,DRSC09808,1.49e5,7814

Just “Renilla normaliser, rep 1” (16 entries from above):
CG10516 [DRSC09738] = 7780
CG7692 [DRSC10902] = 8820
Syngr [DRSC06003] = 3755
pigeon [DRSC03565] = 3227
PPYR1 [DRSC19612] = 6841
Nmda1 [DRSC07479] = 188
Phf7 [DRSC20692] = 5262
CG16903 [DRSC18561] = 6971
Pka-C1 [DRSC03399] = 3996
Cdk1 [DRSC03504] = 210
Rac2 [DRSC11262] = 4281
Dhx15 [DRSC06036] = 3306
AspRS-m [DRSC02646] = 4265
CG3108 [DRSC18280] = 752
Ugt302C1 [DRSC15353] = 3454
CG30471 [DRSC07096] = 3204
